PubChem BioAssay AID1259254 | NCATS – 2017
The whole screen tested about 59,000 reagents; shown is a part drawn at random. About 1,550 of all reagents (2.6%) count as active. 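G2 share is only a proxy for re-replication; each gene was hit by three separate siRNAs, and active genes were retested.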 The numbers tell different reagents against one gene apart. Not all columns of the deposit are shown. The record does not give: the amount of reagent.

Test: 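Gene knock-downs that lead to re-replication, shown by excess G2 DNA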 (primary screen)
Cell system: human HCT116 colorectal cancer cells
Knock-down reagent: single siRNA against human genes
Duration: 3 days
Measurement: 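Nuclei stained with Hoechst and imaged; cell-cycle phase assigned by DNA content; G2 share scaled per plate, non-targeting siRNA 0%, GMNN siRNA 100%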
Direction: G2 robust z-score and G2 cells, % of GMNN control: higher = more G2 cells, more excess DNA replication
Call rule: 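An siRNA counts as active if its G2 robust z-score lies at least 5 MADs above the screen median; here such calls match roughly 38% of GMNN control or more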

{"Target gene":"PAPOLG","reagent no.":1,"G2 robust z-score":-0.0893,"G2 cells, % of GMNN control":2.34,"activity call":"inactive"}
{"Target gene":"PAPOLG","reagent no.":2,"G2 robust z-score":0.217,"G2 cells, % of GMNN control":4.49,"activity call":"inactive"}
{"Target gene":"PAPOLG","reagent no.":3,"G2 robust z-score":0.929,"G2 cells, % of GMNN control":9.5,"activity call":"inactive"}
{"Target gene":"ENOSF1","reagent no.":1,"G2 robust z-score":-1.11,"G2 cells, % of GMNN control":-4.85,"activity call":"inactive"}
{"Target gene":"ENOSF1","reagent no.":2,"G2 robust z-score":2.34,"G2 cells, % of GMNN control":19.4,"activity call":"inactive"}
{"Target gene":"ENOSF1","reagent no.":3,"G2 robust z-score":3.34,"G2 cells, % of GMNN control":26.4,"activity call":"inactive"}
{"Target gene":"ARL17B","reagent no.":1,"G2 robust z-score":-0.403,"G2 cells, % of GMNN control":0.13,"activity call":"inactive"}
{"Target gene":"ARL17B","reagent no.":2,"G2 robust z-score":1.03,"G2 cells, % of GMNN control":10.2,"activity call":"inactive"}
{"Target gene":"ARL17B","reagent no.":3,"G2 robust z-score":-0.336,"G2 cells, % of GMNN control":0.6,"activity call":"inactive"}
{"Target gene":"PDPR","reagent no.":1,"G2 robust z-score":-0.306,"G2 cells, % of GMNN control":0.812,"activity call":"inactive"}
{"Target gene":"PDPR","reagent no.":2,"G2 robust z-score":7.51,"G2 cells, % of GMNN control":55.8,"activity call":"active"}
{"Target gene":"PDPR","reagent no.":3,"G2 robust z-score":8.49,"G2 cells, % of GMNN control":62.7,"activity call":"active"}

Entries above whose gene name starts with E or e (3):
{"Target gene":"ENOSF1","reagent no.":1,"G2 robust z-score":-1.11,"G2 cells, % of GMNN control":-4.85,"activity call":"inactive"}
{"Target gene":"ENOSF1","reagent no.":2,"G2 robust z-score":2.34,"G2 cells, % of GMNN control":19.4,"activity call":"inactive"}
{"Target gene":"ENOSF1","reagent no.":3,"G2 robust z-score":3.34,"G2 cells, % of GMNN control":26.4,"activity call":"inactive"}
